These results are taken from patent publication US7205150B2, “Transgenic plants over-expressing plant ADP-glucose pyrophosphatase” (Universidad Publica de Navarra, priority 2000, dated 2007).

The subject of the data set is AGPPase (soluble and particulate isoforms). As to the kind of experiment: AGPPase enzymatic assay (two-step spectrophotometric determination of G1P produced from ADPG). It is filed as biochemical, barley (Hordeum vulgare), tomato (Lycopersicon sculentum). The conditions noted are these: ADPG hydrolysis.

B1: Soluble AGPPase: soluble isoform of AGPPase purified from barley leaves, a germin-like glycoprotein (protein)
chain: MANAMLLPVLVSFLVLPFSAMALTQDFCVADLSCSDTPAGYPCKTGVGAGDFYYHGLAAAGNTSNLIKAAVTPAFVGQFPGVNGLGISAARLDIAVGGVVPMHTHPAASELLFVTEGTILAGFISSSSNTVYTKTLYKGDIMVFPQGLLHYQYNGGSSSAVALVAFSGPNPGLQITDYALFANNLPSAVVEKVTFLDDAQVKKLKSVLGGSG
modifications: Hordeum vulgare cv. Scarlett; Soluble AGPPase deduced from cDNA
notes: soluble isoform of AGPPase purified from barley leaves, a germin-like glycoprotein
With B1, the “Reaction Kqq′” value is given as 110.
